Reference: publication PMC12673853
The comparison behind a weaker result is the experiment's own reference, which may not be listed here.

Protein sequences, listed by entry. Tags and fused reporters are not part of them.
UniProt P18858, whole entry K845N: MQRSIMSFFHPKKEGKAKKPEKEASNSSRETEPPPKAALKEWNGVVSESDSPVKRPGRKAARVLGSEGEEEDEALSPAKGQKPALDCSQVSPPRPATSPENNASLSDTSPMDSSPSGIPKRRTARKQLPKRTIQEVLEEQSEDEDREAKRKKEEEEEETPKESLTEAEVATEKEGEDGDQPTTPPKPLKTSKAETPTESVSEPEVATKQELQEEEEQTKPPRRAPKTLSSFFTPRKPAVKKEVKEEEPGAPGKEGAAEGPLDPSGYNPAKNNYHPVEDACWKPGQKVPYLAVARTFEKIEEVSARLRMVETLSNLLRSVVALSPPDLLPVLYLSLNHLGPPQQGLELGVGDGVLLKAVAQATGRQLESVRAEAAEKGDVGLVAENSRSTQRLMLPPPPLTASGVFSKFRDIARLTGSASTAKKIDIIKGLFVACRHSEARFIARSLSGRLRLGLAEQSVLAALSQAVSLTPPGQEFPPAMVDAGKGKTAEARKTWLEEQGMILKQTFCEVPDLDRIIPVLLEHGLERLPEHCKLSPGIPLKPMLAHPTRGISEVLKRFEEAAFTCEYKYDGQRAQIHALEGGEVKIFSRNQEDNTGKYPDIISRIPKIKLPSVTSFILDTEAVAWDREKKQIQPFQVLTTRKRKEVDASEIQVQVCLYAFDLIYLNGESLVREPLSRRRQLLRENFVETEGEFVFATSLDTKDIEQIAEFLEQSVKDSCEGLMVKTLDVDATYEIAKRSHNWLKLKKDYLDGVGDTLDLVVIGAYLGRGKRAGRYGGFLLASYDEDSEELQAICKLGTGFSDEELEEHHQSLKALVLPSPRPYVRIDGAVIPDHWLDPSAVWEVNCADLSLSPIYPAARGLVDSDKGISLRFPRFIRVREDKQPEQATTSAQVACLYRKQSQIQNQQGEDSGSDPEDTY
UniProt P18858, whole entry: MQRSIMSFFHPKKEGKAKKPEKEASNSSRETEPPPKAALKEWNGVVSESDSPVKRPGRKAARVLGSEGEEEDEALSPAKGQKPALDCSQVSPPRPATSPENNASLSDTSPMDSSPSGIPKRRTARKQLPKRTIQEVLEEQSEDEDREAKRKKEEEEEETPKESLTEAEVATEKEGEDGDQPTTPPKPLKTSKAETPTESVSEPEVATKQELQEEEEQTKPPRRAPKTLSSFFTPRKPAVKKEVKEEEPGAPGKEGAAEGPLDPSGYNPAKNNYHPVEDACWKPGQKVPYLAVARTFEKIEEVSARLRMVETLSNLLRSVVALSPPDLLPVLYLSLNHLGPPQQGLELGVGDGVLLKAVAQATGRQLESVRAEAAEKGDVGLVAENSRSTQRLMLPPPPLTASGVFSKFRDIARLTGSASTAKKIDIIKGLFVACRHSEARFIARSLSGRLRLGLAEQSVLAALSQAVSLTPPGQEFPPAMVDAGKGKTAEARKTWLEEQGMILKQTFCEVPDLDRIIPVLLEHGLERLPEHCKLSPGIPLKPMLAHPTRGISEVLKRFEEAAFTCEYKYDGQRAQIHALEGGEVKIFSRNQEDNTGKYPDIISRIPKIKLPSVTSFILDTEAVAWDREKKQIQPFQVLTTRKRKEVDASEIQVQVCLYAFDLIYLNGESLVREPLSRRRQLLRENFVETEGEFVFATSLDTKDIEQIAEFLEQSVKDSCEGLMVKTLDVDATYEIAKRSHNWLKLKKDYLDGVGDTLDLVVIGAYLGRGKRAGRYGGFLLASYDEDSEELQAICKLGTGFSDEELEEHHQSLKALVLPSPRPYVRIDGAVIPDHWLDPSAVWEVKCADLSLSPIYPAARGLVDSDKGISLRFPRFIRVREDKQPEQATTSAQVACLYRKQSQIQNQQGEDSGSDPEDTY

How the values were obtained:
[1] = molecular target: LIG1 K845N (Cy5-labelled) (human) (UniProt P18858); assay: single-molecule TIRF co-localization; details: 1 nM LIG1, 5'-phosphate on S18 at nick, TIRF: 1 mM HEPES pH 7.4, 20 mM NaCl, 0.02% BSA, 0.002% Tween 20, oxygen scavenger (44 mM glucose, glucose oxidase, catalase), 10 mM Trolox, 1 nM LIG1-Cy5, recombinant protein, residues 1-919, protein details: 6xHis, Cy5 (NHS ester)
[2] = molecular target: LIG1 wild-type (Cy5-labelled) (human) (UniProt P18858); assay: single-molecule TIRF co-localization; details: short-lived, less frequent, nonspecific binding vs nick, 1 nM LIG1; TIRF: 1 mM HEPES pH 7.4, 20 mM NaCl, 0.02% BSA, 0.002% Tween 20, oxygen scavenger (44 mM glucose, glucose oxidase, catalase), 10 mM Trolox, 1 nM LIG1-Cy5; recombinant protein; residues 1-919; protein details: 6xHis, Cy5 (NHS ester); label: 5'-biotin and 3'-AF488 on S1

Does “CATGGGCGGCATGAACCA / GAGGCCCATCCTCACC / GGTGAGGATGGGCCTCTGGTTCATGCCGCCCATG [nick A:T]” bind ([1]; tbound 5.0 ± 0.2 s and 0.4 ± 0.1 s, tunbound 100 ± 12 s, label: 5'-biotin on S15, 3'-AF488 on S18)?
Result: binds more weakly

Does “CATGGGCGGCATGAACCAGAGGCCCATCCTCACC (double strand) [no-nick dsDNA]” bind [2]?
Result: binds more weakly

Does “CATGGGCGGCATGAACCG / GAGGCCCATCCTCACC / GGTGAGGATGGGCCTCAGGTTCATGCCGCCCATG [nick 8oxoG:A]” bind ([1]; tunbound 145 ± 11 s, tbound not significantly different from wild-type, 8-oxo-dG at position 18 of strand 1, label: 5'-biotin on strand 1, 3'-AF488 on S18, letters put together from the description)?
Result: binds more weakly
